Assay results reported in publication PMC11334840.
These are yes or no findings as the source states them, for the method shown. For part of these data: Binding seen in cells or lysates may run through a third protein. Some entries that bind do so weakly or less than the wild type. For part of these data: Tags and fused reporters may be left off the sequences shown.

Protein sequences, listed by entry. Tags and fused reporters are not part of them. Residues count along the entry.
UniProt P06241, residues 82-143: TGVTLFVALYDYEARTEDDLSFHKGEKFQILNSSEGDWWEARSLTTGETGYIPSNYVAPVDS
UniProt P07947: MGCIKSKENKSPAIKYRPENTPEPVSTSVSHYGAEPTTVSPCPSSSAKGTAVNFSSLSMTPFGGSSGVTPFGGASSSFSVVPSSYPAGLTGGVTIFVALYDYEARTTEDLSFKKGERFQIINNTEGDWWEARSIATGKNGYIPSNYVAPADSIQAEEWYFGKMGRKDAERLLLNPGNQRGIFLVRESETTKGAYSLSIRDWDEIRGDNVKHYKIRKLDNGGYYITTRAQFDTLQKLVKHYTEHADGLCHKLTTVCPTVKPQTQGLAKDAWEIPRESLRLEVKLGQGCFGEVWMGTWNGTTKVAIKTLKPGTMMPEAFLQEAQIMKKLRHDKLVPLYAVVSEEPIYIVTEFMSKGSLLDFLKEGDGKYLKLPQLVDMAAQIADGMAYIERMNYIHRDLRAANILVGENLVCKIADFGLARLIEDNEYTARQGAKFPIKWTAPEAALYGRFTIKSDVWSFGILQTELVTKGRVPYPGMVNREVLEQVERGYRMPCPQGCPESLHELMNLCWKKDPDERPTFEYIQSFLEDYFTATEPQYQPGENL

T1: GST fusion of the PLCγ1 SH3 domain (microarray spot) (UniProt P19174)
T1 sequence: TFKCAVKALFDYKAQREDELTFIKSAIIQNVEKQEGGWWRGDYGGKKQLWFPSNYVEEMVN


What was measured:
[1] = molecular target: epidermal growth factor receptor (human (endogenous in HEK293T)) (UniProt P00533); test: co-IP; anti-EGFR immunoprecipitation from 1 mg HEK293T lysate, 2 h at room temperature; cells without FBS for 18 h, then 45 min with or without FBS; western blots for Src and Yes
[2] = molecular target: GST fusion of the FYN SH3 domain (microarray spot) (UniProt P06241); test: peptide or protein array; GST fusion SH3 domain proteins (about 250 ng) spotted in duplicate on nitrocellulose-coated slides; probed 1 h with biotinylated HER2 tail peptide bound to Cy3-streptavidin in PBST; two fluorescent spots count as binding; both purified
[3] = molecular target: T1, GST fusion of the PLCγ1 SH3 domain (microarray spot); test: as above

Row | binding [1] | binding [2] | binding [3] | Molecule
1 | binds |  |  | Src family tyrosine kinase YES (from UniProt P07947 1-543)
2 |  | binds | binds | GGGGAAPQPHPPPAFSPAFDNL (biotinylated; bound to Cy3-streptavidin) [PRM-containing HER2 tail sequence probe peptide of the protein domain microarray]
